From publication PMC5862903
These are yes or no findings as the source states them, for the method shown. A result given as binding can be weak or reduced; the word gives no strength.

How the values were obtained:
Test in all cases: ELISA; plates coated with 0.5 ug of recombinant receptor (CAD, APN1 or ALP); Cyt1Aa or hybrid-Cyt1Aa at 50 nM (methods; the legend of Figure 4 says 100 nM) in PBST, 1 h at 37 C; detected with rabbit anti-Cyt1A and anti-rabbit HRP; both purified
[1] = target: Manduca sexta CR12 CAD fragment corresponding to cadherin repeat 12 (CAD-CR12) (Manduca sexta)
[2] = target: Manduca sexta alkaline phosphatase (ALP), recombinant (Manduca sexta)
[3] = target: Manduca sexta aminopeptidase N 1 (APN1), recombinant (Manduca sexta)

Measured: binding

B1: CytL3-Loop7 (Cyt1Aa-loop3 hybrid toxin, Cry1Ab domain II loop3 inserted in loop7 of Cyt1Aa) (protein, UniProt P0A382 1-151; P0A382 152-249)
chain: MENLNHCPLEDIKVNPWKTPQSTARVITLRVEDPNEINNLLSINEIDNPNYILQAIMLANAFQNALVPTSTDFGDALRFSMPKGLEIANTITPMGAVVSYVDQNVTQTNNQVSVMINKVLEVLKTVLGVALSGSVIDQLTAAVTNTFTNLNFRSGFSNSSVSITQKNEAWIFWGKETANQTNYTYNVLFAIQNAQTGGVMYCVPVGFEIKVSAVKEQVLFFTIQDSASYNVNIQSLKFAQPLVSSSQYPIADLTSAINGTL
binds: [1] | [2] | [3]

B2: CytL3-Loop6 (Cyt1Aa-loop3 hybrid toxin, Cry1Ab domain II loop3 inserted in loop6 of Cyt1Aa) (protein, UniProt P0A382 1-138; P0A382 139-249)
chain: MENLNHCPLEDIKVNPWKTPQSTARVITLRVEDPNEINNLLSINEIDNPNYILQAIMLANAFQNALVPTSTDFGDALRFSMPKGLEIANTITPMGAVVSYVDQNVTQTNNQVSVMINKVLEVLKTVLGVALSGSVIDQFRSGFSNSSVSILTAAVTNTFTNLNTQKNEAWIFWGKETANQTNYTYNVLFAIQNAQTGGVMYCVPVGFEIKVSAVKEQVLFFTIQDSASYNVNIQSLKFAQPLVSSSQYPIADLTSAINGTL
binds: [1] | [2] | [3]

B3: CytL3-Loop9 (Cyt1Aa-loop3 hybrid toxin, Cry1Ab domain II loop3 inserted in loop9 of Cyt1Aa) (protein, UniProt P0A382 1-167; P0A382 168-249)
chain: MENLNHCPLEDIKVNPWKTPQSTARVITLRVEDPNEINNLLSINEIDNPNYILQAIMLANAFQNALVPTSTDFGDALRFSMPKGLEIANTITPMGAVVSYVDQNVTQTNNQVSVMINKVLEVLKTVLGVALSGSVIDQLTAAVTNTFTNLNTQKNEAWIFWGKETANFRSGFSNSSVSIQTNYTYNVLFAIQNAQTGGVMYCVPVGFEIKVSAVKEQVLFFTIQDSASYNVNIQSLKFAQPLVSSSQYPIADLTSAINGTL
binds: [1] | [2] | [3]
